Measured values reported in the supplement of paper PMC12819154, “High-throughput peptide-centric local stability assay extends protein–ligand identification to membrane proteins, tissues and bacteria” (Nature Structural & Molecular Biology, 2025).
The list shows a part of the results. Small differences around the control level are noise.

Chains of the proteins cited; added tags and fusions are not shown. Lines headed by an entry give the natural chain unless they say otherwise; changes in a name come on top.
UniProt Q9NYH9: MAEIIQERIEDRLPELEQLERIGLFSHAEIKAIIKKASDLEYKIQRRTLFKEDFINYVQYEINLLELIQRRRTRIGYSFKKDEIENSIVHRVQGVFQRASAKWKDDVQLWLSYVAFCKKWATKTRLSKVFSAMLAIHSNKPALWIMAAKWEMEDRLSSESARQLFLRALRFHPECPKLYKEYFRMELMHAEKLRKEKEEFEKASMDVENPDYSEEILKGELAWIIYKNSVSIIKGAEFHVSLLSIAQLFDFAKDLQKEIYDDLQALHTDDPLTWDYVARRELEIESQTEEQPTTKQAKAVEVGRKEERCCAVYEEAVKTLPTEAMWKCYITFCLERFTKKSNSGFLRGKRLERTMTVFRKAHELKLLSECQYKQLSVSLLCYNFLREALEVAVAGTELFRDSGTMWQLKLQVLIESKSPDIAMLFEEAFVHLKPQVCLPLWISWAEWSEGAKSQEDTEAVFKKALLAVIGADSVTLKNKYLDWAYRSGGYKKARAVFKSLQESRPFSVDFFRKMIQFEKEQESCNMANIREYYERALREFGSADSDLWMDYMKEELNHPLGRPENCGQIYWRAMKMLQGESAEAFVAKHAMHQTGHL
UniProt Q9UBM7: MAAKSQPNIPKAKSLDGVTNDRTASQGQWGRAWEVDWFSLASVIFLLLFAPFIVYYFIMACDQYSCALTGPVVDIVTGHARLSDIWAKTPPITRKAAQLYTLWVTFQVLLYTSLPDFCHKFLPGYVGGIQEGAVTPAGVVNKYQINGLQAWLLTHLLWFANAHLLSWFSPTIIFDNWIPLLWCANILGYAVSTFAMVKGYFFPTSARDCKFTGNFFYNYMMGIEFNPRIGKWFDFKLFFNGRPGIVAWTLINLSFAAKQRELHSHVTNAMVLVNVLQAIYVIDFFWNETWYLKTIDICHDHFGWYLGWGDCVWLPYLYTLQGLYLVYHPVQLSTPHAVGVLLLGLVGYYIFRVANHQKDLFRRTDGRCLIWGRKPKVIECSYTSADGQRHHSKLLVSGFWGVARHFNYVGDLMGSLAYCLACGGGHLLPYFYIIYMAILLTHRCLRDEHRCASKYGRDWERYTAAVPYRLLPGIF
UniProt Q9NX05: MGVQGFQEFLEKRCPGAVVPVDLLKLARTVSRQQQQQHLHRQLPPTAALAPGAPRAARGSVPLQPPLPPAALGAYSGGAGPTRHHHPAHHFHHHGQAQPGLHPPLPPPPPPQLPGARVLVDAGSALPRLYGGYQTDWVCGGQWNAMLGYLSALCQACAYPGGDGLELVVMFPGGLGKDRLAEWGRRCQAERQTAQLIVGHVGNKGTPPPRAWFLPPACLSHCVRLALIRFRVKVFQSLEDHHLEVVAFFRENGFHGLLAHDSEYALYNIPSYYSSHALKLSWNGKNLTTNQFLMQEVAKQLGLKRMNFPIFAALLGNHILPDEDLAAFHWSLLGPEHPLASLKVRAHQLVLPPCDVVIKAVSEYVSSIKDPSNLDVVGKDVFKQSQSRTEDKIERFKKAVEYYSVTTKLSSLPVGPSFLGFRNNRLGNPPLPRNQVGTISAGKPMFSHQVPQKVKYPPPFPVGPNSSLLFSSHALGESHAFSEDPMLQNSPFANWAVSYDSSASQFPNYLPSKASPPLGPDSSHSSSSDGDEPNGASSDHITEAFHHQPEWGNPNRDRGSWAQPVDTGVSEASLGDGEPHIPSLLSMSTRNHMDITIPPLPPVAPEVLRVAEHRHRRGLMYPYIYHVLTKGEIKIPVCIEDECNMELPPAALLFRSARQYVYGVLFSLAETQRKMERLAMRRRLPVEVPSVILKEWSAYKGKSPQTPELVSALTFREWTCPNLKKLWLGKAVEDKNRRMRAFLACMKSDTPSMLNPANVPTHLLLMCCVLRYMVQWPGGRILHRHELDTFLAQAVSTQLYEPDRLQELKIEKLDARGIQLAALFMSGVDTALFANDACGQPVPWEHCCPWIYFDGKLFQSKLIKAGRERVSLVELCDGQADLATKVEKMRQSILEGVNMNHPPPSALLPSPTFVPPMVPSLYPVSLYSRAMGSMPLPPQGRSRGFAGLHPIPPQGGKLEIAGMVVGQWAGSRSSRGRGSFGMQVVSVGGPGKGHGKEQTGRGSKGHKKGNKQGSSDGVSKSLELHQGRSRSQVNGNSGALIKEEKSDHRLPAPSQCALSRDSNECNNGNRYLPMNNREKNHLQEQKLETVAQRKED
UniProt Q9UBU7: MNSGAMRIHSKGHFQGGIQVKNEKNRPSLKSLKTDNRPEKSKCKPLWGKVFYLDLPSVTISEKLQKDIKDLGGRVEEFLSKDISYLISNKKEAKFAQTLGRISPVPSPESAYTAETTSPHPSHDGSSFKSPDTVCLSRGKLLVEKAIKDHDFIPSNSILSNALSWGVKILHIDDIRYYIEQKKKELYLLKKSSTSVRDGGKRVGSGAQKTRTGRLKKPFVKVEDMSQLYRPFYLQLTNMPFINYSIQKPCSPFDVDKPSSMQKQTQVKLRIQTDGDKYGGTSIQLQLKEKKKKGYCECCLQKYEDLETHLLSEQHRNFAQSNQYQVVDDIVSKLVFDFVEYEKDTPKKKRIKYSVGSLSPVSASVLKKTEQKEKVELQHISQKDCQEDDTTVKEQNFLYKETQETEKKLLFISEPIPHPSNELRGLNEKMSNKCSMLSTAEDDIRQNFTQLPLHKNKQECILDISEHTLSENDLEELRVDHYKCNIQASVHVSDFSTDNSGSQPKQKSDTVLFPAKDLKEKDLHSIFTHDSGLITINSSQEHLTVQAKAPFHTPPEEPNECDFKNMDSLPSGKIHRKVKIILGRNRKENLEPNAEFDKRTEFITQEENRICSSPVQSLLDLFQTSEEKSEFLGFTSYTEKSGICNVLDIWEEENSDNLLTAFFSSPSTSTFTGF
UniProt Q9P2G9: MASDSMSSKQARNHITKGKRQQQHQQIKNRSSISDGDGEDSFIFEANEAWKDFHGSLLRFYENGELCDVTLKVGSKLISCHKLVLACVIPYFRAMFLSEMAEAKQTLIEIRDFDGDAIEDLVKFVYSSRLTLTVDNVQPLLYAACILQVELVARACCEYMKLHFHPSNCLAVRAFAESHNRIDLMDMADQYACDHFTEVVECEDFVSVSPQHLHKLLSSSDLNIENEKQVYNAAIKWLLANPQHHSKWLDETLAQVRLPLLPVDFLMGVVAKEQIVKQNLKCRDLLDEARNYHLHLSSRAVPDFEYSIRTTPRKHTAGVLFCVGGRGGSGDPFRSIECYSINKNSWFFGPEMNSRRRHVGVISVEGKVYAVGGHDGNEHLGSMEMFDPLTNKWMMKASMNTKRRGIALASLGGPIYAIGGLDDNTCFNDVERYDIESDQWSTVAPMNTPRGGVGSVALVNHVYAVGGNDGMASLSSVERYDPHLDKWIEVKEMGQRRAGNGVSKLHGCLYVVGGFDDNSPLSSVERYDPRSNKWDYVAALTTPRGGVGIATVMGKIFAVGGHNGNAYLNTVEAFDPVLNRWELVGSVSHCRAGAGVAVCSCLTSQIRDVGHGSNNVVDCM
UniProt Q9NYA4: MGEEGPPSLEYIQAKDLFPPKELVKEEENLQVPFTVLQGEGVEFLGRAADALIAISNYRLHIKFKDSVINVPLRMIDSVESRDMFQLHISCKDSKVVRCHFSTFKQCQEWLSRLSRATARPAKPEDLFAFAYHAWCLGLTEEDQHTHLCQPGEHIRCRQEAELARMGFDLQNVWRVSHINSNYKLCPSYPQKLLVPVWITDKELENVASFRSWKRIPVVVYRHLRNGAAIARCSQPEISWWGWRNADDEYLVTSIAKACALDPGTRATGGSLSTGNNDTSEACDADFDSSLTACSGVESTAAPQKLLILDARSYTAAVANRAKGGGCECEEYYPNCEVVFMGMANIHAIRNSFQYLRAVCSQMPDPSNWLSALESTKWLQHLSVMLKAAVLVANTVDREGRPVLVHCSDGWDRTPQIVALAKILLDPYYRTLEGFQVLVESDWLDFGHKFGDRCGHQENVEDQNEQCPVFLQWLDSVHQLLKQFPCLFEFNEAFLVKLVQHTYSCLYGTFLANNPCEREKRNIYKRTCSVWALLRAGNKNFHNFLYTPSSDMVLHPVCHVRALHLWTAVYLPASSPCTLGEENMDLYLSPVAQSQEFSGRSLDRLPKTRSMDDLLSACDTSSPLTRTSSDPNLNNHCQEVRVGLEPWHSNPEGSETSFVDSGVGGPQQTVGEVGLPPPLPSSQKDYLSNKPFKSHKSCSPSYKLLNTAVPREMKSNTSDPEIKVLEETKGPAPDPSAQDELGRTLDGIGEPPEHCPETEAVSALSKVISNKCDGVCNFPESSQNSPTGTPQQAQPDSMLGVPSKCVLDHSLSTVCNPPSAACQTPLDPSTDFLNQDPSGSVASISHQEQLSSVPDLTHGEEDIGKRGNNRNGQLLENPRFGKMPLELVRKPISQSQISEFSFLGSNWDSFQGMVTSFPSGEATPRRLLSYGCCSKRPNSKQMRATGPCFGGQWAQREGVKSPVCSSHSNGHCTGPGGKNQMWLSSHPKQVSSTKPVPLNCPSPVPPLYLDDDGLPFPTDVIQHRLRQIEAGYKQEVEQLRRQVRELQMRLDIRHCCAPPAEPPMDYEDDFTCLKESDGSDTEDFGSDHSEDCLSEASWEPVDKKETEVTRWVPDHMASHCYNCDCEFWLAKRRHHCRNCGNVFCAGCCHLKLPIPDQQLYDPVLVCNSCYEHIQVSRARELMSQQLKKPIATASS
UniProt Q9P000, whole entry: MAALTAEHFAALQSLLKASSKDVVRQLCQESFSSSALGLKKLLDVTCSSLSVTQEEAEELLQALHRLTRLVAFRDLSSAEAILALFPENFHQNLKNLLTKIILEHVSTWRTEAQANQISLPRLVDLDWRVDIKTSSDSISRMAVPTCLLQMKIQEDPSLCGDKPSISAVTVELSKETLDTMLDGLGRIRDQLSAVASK
UniProt Q9NXF1: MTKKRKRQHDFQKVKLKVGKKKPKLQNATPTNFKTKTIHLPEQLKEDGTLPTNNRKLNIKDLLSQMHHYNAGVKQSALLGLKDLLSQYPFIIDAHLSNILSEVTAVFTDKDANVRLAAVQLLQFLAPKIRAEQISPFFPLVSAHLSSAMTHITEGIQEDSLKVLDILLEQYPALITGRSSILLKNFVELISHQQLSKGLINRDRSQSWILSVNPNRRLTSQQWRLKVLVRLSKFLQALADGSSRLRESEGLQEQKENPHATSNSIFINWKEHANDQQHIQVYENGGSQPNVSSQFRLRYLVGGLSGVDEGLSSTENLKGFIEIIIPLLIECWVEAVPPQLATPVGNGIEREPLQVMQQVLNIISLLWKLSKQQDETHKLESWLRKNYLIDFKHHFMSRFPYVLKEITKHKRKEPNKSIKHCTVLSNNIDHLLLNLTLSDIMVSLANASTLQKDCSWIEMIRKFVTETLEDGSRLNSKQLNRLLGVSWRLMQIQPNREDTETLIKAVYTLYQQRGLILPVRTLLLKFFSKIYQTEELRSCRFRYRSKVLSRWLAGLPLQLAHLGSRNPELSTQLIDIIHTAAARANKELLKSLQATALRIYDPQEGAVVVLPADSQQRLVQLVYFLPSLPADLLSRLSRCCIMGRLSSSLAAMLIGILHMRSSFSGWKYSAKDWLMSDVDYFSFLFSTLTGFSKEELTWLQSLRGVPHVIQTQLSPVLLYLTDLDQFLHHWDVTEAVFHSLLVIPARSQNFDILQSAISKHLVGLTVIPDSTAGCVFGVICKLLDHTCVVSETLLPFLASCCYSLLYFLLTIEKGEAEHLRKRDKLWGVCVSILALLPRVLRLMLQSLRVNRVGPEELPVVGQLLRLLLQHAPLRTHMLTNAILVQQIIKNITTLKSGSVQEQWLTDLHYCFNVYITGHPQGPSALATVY
UniProt Q9NZZ3: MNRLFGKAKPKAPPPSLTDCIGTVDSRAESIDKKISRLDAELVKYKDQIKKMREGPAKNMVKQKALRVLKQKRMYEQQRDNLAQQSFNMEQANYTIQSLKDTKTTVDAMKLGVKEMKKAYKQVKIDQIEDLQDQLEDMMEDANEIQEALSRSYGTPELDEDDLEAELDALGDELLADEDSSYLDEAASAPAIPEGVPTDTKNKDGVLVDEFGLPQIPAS
UniProt Q9UBZ4: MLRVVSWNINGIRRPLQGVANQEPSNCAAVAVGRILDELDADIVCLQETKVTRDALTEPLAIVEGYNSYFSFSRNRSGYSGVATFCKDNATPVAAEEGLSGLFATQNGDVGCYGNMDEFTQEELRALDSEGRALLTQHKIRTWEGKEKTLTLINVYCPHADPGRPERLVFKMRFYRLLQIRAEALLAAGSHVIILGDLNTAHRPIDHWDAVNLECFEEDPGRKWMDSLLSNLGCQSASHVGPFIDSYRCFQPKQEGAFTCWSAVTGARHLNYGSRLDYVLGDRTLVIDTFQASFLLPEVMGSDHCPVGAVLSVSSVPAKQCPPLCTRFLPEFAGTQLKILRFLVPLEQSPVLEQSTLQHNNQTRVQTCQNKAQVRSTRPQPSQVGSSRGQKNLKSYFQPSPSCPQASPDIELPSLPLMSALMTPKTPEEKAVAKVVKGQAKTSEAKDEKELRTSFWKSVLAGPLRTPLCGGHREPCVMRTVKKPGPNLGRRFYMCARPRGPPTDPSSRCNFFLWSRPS

compound: Cc1nc(Nc2ncc(C(=O)Nc3c(C)cccc3Cl)s2)cc(N2CCN(CCO)CC2)n1 [dasatinib]; assay: log2 fold change of tryptic peptide abundance, ligand vs vehicle (limited proteolysis) (log2 ratio); higher = more trypsin-susceptible (destabilized); conditions: ligand concentration: 5 uM; sample: K562 cleared lysate

**Q.** Which log2 fold change does the source give for “SAE1 (peptide sequence: ALSQRDPPHNNFFFFDGMK, peptide start residue: 317) (UniProt Q9UBE0)” here?
**A.** Its log2 fold change is 0.504.

**Q.** Which log2 fold change does the source give for “UTP6 (peptide sequence: TLPTEAMWK, peptide start residue: 319) (UniProt Q9NYH9)” here?
**A.** The log2 fold change was 0.0958.

**Q.** How did the log2 fold change turn out when “DHCR7 (peptide sequence: TASQGQWGR, peptide start residue: 23) (UniProt Q9UBM7)” was run?
**A.** The log2 fold change was 0.155.

**Q.** With “UniProt Q9NYU1 (peptide sequence: SFTVSLHK, peptide start residue: 1215)” as the target, how does the log2 fold change read?
**A.** Its log2 fold change is -0.0663.

**Q.** For “GEMIN8 (peptide sequence: SVEAPTERPGERR, peptide start residue: 185) (UniProt Q9NWZ8)”, which log2 fold change is on record?
**A.** Its log2 fold change is 0.255.

**Q.** Which log2 fold change does the source give for “PISD (peptide sequence: EAAVEDLHHYR, peptide start residue: 153) (UniProt Q9UG56)” here?
**A.** The log2 fold change was 0.379.

**Q.** How did the log2 fold change turn out when “UniProt Q9NXH8 (peptide sequence: SVLEDSALVLQYHAR, peptide start residue: 213)” was run?
**A.** Its log2 fold change is 0.121.

**Q.** For “CLIP2 (peptide sequence: QQHIEQLLAER, peptide start residue: 361) (UniProt Q9UDT6)”, which log2 fold change is on record?
**A.** The log2 fold change was 0.1.

**Q.** “ARL15 (peptide sequence: KYFELEPLAR, peptide start residue: 157) (UniProt Q9NXU5)” was tested. Which log2 fold change did it give?
**A.** The log2 fold change was 0.435.

**Q.** How did the log2 fold change turn out when “UniProt Q9P0J1 (peptide sequence: VTLGQMHGLLTER, peptide start residue: 453)” was run?
**A.** Its log2 fold change is -0.175.

**Q.** For “DDX56 (peptide sequence: LKEIKEELLHSEK, peptide start residue: 447) (UniProt Q9NY93)”, which log2 fold change is on record?
**A.** Its log2 fold change is -0.256.

**Q.** With “FAM120C (peptide sequence: AHQLVLPPCDVVIK, peptide start residue: 271) (UniProt Q9NX05)” as the target, how does the log2 fold change read?
**A.** The log2 fold change was -0.0441.

**Q.** “DBF4 (peptide sequence: MSNKCSMLSTAEDDIR, peptide start residue: 430) (UniProt Q9UBU7)” was tested. Which log2 fold change did it give?
**A.** The log2 fold change was -0.387.

**Q.** How did the log2 fold change turn out when “KLHL8 (peptide sequence: WLLANPQHHSK, peptide start residue: 237) (UniProt Q9P2G9)” was run?
**A.** The log2 fold change was 0.246.

**Q.** “DNMT3B (peptide sequence: NNNSVSSR, peptide start residue: 107) (UniProt Q9UBC3)” was tested. Which log2 fold change did it give?
**A.** Its log2 fold change is 0.386.

**Q.** How did the log2 fold change turn out when “BAHCC1 (peptide sequence: KSSCQGGLAPSVAHR, peptide start residue: 1561) (UniProt Q9P281)” was run?
**A.** The log2 fold change was -0.68.

**Q.** “DONSON (peptide sequence: VAAEPPDGPAR, peptide start residue: 89) (UniProt Q9NYP3)” was tested. Which log2 fold change did it give?
**A.** Its log2 fold change is 0.121.

**Q.** Which log2 fold change does the source give for “PEF1 (peptide sequence: NLFQQYDRDR, peptide start residue: 188) (UniProt Q9UBV8)” here?
**A.** The log2 fold change was 0.518.

**Q.** For “MTMR4 (peptide sequence: ELMSQQLK, peptide start residue: 1180) (UniProt Q9NYA4)”, which log2 fold change is on record?
**A.** The log2 fold change was -0.352.

**Q.** For “COMMD9 (peptide sequence: MAVPTCLLQMK, peptide start residue: 142) (UniProt Q9P000)”, which log2 fold change is on record?
**A.** Its log2 fold change is 0.117.

**Q.** “TEX10 (peptide sequence: EDGTLPTNNR, peptide start residue: 46) (UniProt Q9NXF1)” was tested. Which log2 fold change did it give?
**A.** Its log2 fold change is -0.164.

**Q.** Which log2 fold change does the source give for “RNF7 (peptide sequence: VQVMDACLR, peptide start residue: 55) (UniProt Q9UBF6)” here?
**A.** Its log2 fold change is -0.0991.

**Q.** How did the log2 fold change turn out when “CWC15 (peptide sequence: KEQEQKAEEER, peptide start residue: 147) (UniProt Q9P013)” was run?
**A.** Its log2 fold change is 0.313.

**Q.** “UniProt Q9P2S5 (peptide sequence: AGAGPLPSSESK, peptide start residue: 296)” was tested. Which log2 fold change did it give?
**A.** The log2 fold change was 0.11.

**Q.** Which log2 fold change does the source give for “ANKFY1 (peptide sequence: AEEEVAKLEK, peptide start residue: 2) (UniProt Q9P2R3)” here?
**A.** The log2 fold change was 0.207.

**Q.** With “UniProt Q9P0M2 (peptide sequence: SQENEWVK, peptide start residue: 62)” as the target, how does the log2 fold change read?
**A.** The log2 fold change was 0.327.

**Q.** For “CHMP5 (peptide sequence: YKDQIKK, peptide start residue: 45) (UniProt Q9NZZ3)”, which log2 fold change is on record?
**A.** Its log2 fold change is -0.0293.

**Q.** How did the log2 fold change turn out when “RABL2A (peptide sequence: FQSMHASYYHK, peptide start residue: 83) (UniProt Q9UBK7)” was run?
**A.** The log2 fold change was 0.113.

**Q.** Which log2 fold change does the source give for “CHD7 (peptide sequence: THTITIESEGK, peptide start residue: 1495) (UniProt Q9P2D1)” here?
**A.** The log2 fold change was 0.539.

**Q.** How did the log2 fold change turn out when “FBXL17 (peptide sequence: KGAGVPACTPCKQPR, peptide start residue: 200) (UniProt Q9UF56)” was run?
**A.** Its log2 fold change is 0.0303.

**Q.** For “APEX2 (peptide sequence: STRPQPSQVGSSR, peptide start residue: 376) (UniProt Q9UBZ4)”, which log2 fold change is on record?
**A.** The log2 fold change was 0.0208.

**Q.** Which log2 fold change does the source give for “UniProt Q9NYU2 (peptide sequence: QLLYDAIK, peptide start residue: 776)” here?
**A.** The log2 fold change was -0.565.

**Q.** With “CPSF2 (peptide sequence: NNPFQFR, peptide start residue: 300) (UniProt Q9P2I0)” as the target, how does the log2 fold change read?
**A.** Its log2 fold change is 0.136.

**Q.** For “STK39 (peptide sequence: EASSCAVNLVLR, peptide start residue: 446) (UniProt Q9UEW8)”, which log2 fold change is on record?
**A.** Its log2 fold change is -0.387.

**Q.** For “MIOS (peptide sequence: SLWYTLHFMK, peptide start residue: 425) (UniProt Q9NXC5)”, which log2 fold change is on record?
**A.** The log2 fold change was -0.378.

**Q.** Which log2 fold change does the source give for “BCCIP (peptide sequence: KGTQCVEQIQELVLR, peptide start residue: 137) (UniProt Q9P287)” here?
**A.** The log2 fold change was -0.102.

**Q.** For “CRIPT (peptide sequence: SSVHQPGSHYCQGCAYKK, peptide start residue: 63) (UniProt Q9P021)”, which log2 fold change is on record?
**A.** The log2 fold change was 0.717.
